Experimental data: PMC4949421
Construct, isoform or probe ends are uncertain for at least one entry. Where cells or extracts were used, other partners may take part. Protein sequences can lack the tags named with them.

How the values were obtained:
SMAD4 [1] = biological target: T1, SMAD4 (UniProt Q13485); test: EMSA, supershift; details: anti-SMAD4 supershift; 10 mM Tris-HCl pH 7.5, 50 mM NaCl, 1 mM EDTA, 1 mM DTT, 5% glycerol, 2 ug poly(dIdC), 5-10 ug nuclear extract, 1 ng probe, 20 ul, 20 min, room temperature; protein in an extract; label: 32P end label, unlabeled as competitor
T1 sequence (looked up, limits assumed): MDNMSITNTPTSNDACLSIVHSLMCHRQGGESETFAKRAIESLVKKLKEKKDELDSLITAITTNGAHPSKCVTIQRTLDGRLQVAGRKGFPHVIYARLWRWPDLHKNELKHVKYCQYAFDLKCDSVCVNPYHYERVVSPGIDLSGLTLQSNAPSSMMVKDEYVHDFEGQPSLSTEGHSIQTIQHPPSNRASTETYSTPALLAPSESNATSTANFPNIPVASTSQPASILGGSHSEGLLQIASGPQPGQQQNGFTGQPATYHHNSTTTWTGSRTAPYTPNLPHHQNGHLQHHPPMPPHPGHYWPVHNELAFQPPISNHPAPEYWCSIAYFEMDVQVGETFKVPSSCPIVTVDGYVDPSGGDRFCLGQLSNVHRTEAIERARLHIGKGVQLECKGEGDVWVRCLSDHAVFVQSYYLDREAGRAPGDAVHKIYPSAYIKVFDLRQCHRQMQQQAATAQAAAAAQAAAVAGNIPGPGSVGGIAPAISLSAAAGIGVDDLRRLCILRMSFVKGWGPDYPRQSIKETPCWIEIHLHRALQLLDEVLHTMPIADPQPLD

SMAD4 [2] = biological target: T1, SMAD4; test: competition with a labelled probe; details: unlabeled, 100- and 300-fold excess, vs DSPP -211/-183 and SBE probes; 10 mM Tris-HCl pH 7.5, 50 mM NaCl, 1 mM EDTA, 1 mM DTT, 5% glycerol, 2 ug poly(dIdC), 5-10 ug nuclear extract, 1 ng probe, 20 ul, 20 min, room temperature; protein in an extract; label: 32P end label, unlabeled as competitor
SMAD4 [3] = biological target: T1, SMAD4; test: EMSA; details: 10 mM Tris-HCl pH 7.5, 50 mM NaCl, 1 mM EDTA, 1 mM DTT, 5% glycerol, 2 ug poly(dIdC), 5-10 ug nuclear extract, 1 ng probe, 20 ul, 20 min, room temperature; protein in an extract; label: 32P end label

Q: Does “AGTCTAGTCCTTTTGGAACCAAAGGTCT (double strand) [DSPP -211/-183]” bind (SMAD4 [1])?
A: Result: binds

Q: Does “AGTCTAGTCCTTTTGGAACCAAAGGTCT (double strand) [DSPP -211/-183]” bind (SMAD4 [2])?
A: Result: binds

Q: Does “GCAGGGTGACAGAGTCTAAGTGGCTCTTT (double strand) [DSPP -316/-288]” bind (SMAD4 [3])?
A: Result: binds

Q: Does “GGTCTCAGTGAGCCAACGTACCGGCG (double strand) [DSPP -188/-163]” bind (SMAD4 [3])?
A: Result: binds

Q: Does “TAAGACACAAAACAGTCTTCCAGGAGCT (double strand) [DSPP -258/-231]” bind (SMAD4 [3])?
A: Result: binds
